# Measured values published in patent publication US20140294856A1, “COMBINATION TREATMENT COMPRISING A HDAC6 INHIBITOR AND AN AKT INHIBITOR” (priority 2011, published 2014).
# For at least one compound, name, drawing or mass did not settle the structure. Some compounds share one wording; it may come from a single statement.
# Test system: HCT116 cells
# Test: Combination studies, SRB assay, combination index (CalcuSyn)
# Format: cell-based, human
# Conditions: HCT116, 72 hours
row,SMILES,combination effect with HDAC-C1A on growth inhibition
1,CO[C@H]1C[C@@H]2CC[C@@H](C)[C@@](O)(O2)C(=O)C(=O)N2CCCC[C@H]2C(=O)O[C@H]([C@H](C)C[C@@H]2CC[C@@H](O)[C@H](OC)C2)CC(=O)[C@H](C)/C=C(\C)[C@@H](O)[C@@H](OC)C(=O)[C@H](C)C[C@H](C)/C=C/C=C/C=C/1C [rapamycin],Synergistic effect
2,O=c1cc(N2CCOCC2)oc2c(-c3ccccc3)cccc12 [LY294002],Synergistic effect
3,COC[C@H]1OC(=O)c2coc3c2[C@@]1(C)C1=C(C3=O)[C@@H]2CCC(=O)[C@@]2(C)C[C@H]1OC(C)=O [wortmanin],Synergistic effect
